# According to the supplement of paper PMC3334620:
# Whole data set: some 33,000 sequences, median “E-score (-0.5 to 0.5)” near -0.0014, cut for the highest 2% near 0.25. This is one part of the list.
# Target: T1, Cad1 (UniProt P24813)
# T1 sequence: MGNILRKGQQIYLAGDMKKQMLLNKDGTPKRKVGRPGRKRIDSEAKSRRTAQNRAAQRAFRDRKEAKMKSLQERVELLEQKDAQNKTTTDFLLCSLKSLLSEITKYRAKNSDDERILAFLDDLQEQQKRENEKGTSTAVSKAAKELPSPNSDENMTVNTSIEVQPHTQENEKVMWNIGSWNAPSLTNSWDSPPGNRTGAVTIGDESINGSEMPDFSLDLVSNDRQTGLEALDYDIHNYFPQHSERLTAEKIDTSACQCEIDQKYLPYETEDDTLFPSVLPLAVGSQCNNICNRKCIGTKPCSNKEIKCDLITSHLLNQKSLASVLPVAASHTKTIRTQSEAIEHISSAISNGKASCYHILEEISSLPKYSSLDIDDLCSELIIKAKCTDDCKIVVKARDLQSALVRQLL
# Experiment: PBM E-score (8-mer binding enrichment) (E-score (-0.5 to 0.5)); higher = stronger / more preferred TF binding
# Conditions: protein concentration: 100 nM; construct: GST-full length
# Summary of the method: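 Using PURExpress in vitro transcription/translation, GST-tagged yeast transcription factors were made in full-length or DNA-binding-domain form. These were applied at about 100-200 nM to double-stranded universal all-10-mer Agilent arrays, and bound protein was detected with fluorescent anti-GST. Scans were normalised with masliner before the Universal PBM Analysis Suite assigned E-scores to ungapped eight-base words pooled with their reverse complements.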
row,Sequence,PBM E-score
1,ACGGGAGT,0.194
2,AAGCCCTA,0.0261
3,CTTAACAC,0.127
4,CCCTGCAA,-0.0707
5,CCTTGGCA,-0.261
6,GTATCAAA,0.142
7,CACATTCC,0.0513
8,CCCATAGG,0.00632
9,AAGGGGCC,-0.211
10,CTGGCCAA,0.157
11,CGGCTATC,-0.0996
12,GTTATCGA,0.0927
13,ATGCGCGC,0.238
14,ACTTAAAA,0.0782
15,ACGGTTGC,-0.0529
16,ACATAGCC,0.181
17,AGAGAACA,0.108
18,CCCTATTC,-0.0694
19,AGGAGCCG,-0.315
20,ATTCCCGC,0.202
21,CCCGCTGA,-0.0893
22,AGGCAGAG,-0.0635
23,AACTATTC,0.113
24,ACTCCACC,-0.0217
25,GGTGGTCA,-0.172

row,Sequence,PBM E-score
1,TGTGGAAA,0.0953
2,ATCTTTTC,0.159
3,TCCCAGGA,-0.243
4,GATAGAAA,0.00079
5,ACCTGCCT,-0.12
6,CTAGATAG,0.0131
7,ATACGGAA,0.151
8,CCGATCGA,0.0111
9,AGTCACGC,-0.175
10,AAATCTTC,-0.0471
11,GAATTCCA,0.117
12,ACTTGGGC,-0.169
13,CCTAAGAG,0.0476
14,AGAGAACC,-0.19
15,TGGCCCCA,-0.295
16,ACAGCGAC,-0.21
17,CGGCAGTA,-0.0865
18,AGGTAGAG,-0.0989
19,ATTCCCGG,0.296
20,GCTCAAGC,-0.166
21,AAAAATAA,0.207
22,TTAAGAAA,-0.0462
23,AGAAAATA,0.132
24,CACGTGGG,-0.126
25,CCCGGTCC,-0.222

row,Sequence,PBM E-score
1,AAGCTTGC,-0.0904
2,GGACGCTA,-0.137
3,ACCGCGAC,0.199
4,CCGTAGAA,-0.122
5,GGCCCATA,-0.133
6,AGAGCAGA,-0.148
7,ATATGTAC,0.202
8,CGCGCACC,0.0571
9,CGAATTCG,0.171
10,GAACGCGA,0.111
11,AGACGGAT,0.201
12,ATAGAAAA,0.117
13,AAGCCGCT,0.0602
14,CAGAGGCA,-0.0209
15,ACCGTATA,-0.00739
16,CATAATAA,-0.0382
17,AATTGCGT,0.139
18,ACTCTCAC,0.033
19,AGATACTG,0.158
20,AATGACGA,0.162
21,AAATGTGA,0.139
22,AGCGCTCA,0.154
23,CCTTGTCA,-0.111
24,CACACAGC,0.107
25,CCTGAATA,0.17

row,Sequence,PBM E-score
1,AATATTGC,0.294
2,GAAGCACC,-0.125
3,ATCTTGCA,0.202
4,CCGGACAC,-0.0858
5,CCGTGCAG,-0.0124
6,GACTACTC,0.0182
7,CAAAGATA,0.182
8,TACTACCA,-0.123
9,ACGTGTAC,-0.142
10,AGTATAAT,0.163
11,CTCGCCGA,-0.0375
12,ATCGGATC,0.227
13,CAATCCAA,0.0494
14,AGGCGTTA,0.0348
15,GCATATCC,0.095
16,CGTCCAGA,-0.0971
17,CACTACTC,0.0957
18,ATTGGGAG,-0.152
19,ACCAAAGA,0.0914
20,TAGCAATA,0.102
21,CGTATAGC,0.00542
22,AGAACAAT,0.117
23,GTCGTAAA,0.0215
24,CCAACACC,-0.109
25,AAAGTGTG,0.0308

row,Sequence,PBM E-score
1,AAAACTCC,-0.184
2,CACGATAG,0.0883
3,ACACGGTC,-0.0715
4,AGTTACAG,-0.0124
5,GCAGTCAA,-0.147
6,AGCTGGGC,-0.0598
7,AGCGGAAT,-0.0284
8,CGAACGCC,-0.0886
9,GATCATTA,0.115
10,CCAAATGA,0.168
11,CTAAAAAG,-0.115
12,CAGTGTCG,-0.161
13,GCCAAGGC,-0.224
14,AAATTCGA,0.0357
15,GGCATTGA,-0.0489
16,AGATCGAC,0.0578
17,TCCACACA,-0.0609
18,AATATTTA,0.213
19,ATGCACTG,0.0824
20,AACTACCC,-0.174
21,ATACGTGC,-0.0538
22,CACAGGTG,-0.0858
23,CTGCCCAA,-0.0126
24,GTTGACAA,0.166
25,AGATTTAA,0.0822

# As entered above.
# CACGATAG – PBM E-score: 0.0883
# GCAGTCAA – PBM E-score: -0.147
# AAAACTCC – PBM E-score: -0.184
# AGTTACAG – PBM E-score: -0.0124
# GCCAAGGC – PBM E-score: -0.224
# ACACGGTC – PBM E-score: -0.0715

# Continuation:

row,Sequence,PBM E-score
1,AAGGTAGA,-0.18
2,CTAAGGCA,-0.18
3,ACACGCGC,0.0948
4,CGTCCCAC,-0.078
5,AATCGTAG,0.149
6,CCGCACAA,-0.0324
7,AAAGAATT,0.0721
8,ATGCACCG,-0.0432
9,CTCGAATA,-0.0823
10,GAGTTGCA,0.0539
11,GGTCCACC,-0.276
12,AGCAACAC,0.152
13,CAGGGTAG,-0.0304
14,AGTCTACG,-0.175
15,AGCTATCA,0.118
16,GTCCAGAC,-0.0351
17,ACTCCCGA,0.0151
18,AACGGTAA,-0.0293
19,GTAGGGTA,0.0364
20,GAAAGAAA,0.183
21,GCTACTGA,0.0457
22,CCTGCAAA,-0.117
23,CAGTGACC,-0.17
24,CCGGGCTA,-0.289
25,CTAGTCAC,-0.0877

row,Sequence,PBM E-score
1,GTAAGCAC,0.163
2,TACAAGAA,0.0619
3,TGGATTAA,-0.073
4,AATTTACC,0.104
5,GTGCTAAC,0.103
6,CTCCCGTA,-0.191
7,AGCCGAAA,-0.073
8,CGCTGACA,0.297
9,GGCTTGCA,-0.0157
10,CGTGCCTC,-0.0429
11,GAACTGAA,-0.0794
12,GCACTTAC,0.015
13,TAAGGACA,0.118
14,AGTCCGGC,0.108
15,CCACAATC,0.056
16,ATCATATA,0.0551
17,CTCCTATA,-0.327
18,ACAATGCT,-0.0332
19,CTGACACC,-0.17
20,ACGGACCA,0.243
21,ACATAGAG,-0.176
22,ACGTCTGA,0.183
23,CAGGAAGA,-0.0775
24,AATCGACT,-0.039
25,CAATAGCC,-0.162

row,Sequence,PBM E-score
1,CTAGGAGC,-0.118
2,CAAAGAGG,0.0231
3,GATTCATA,0.0689
4,GACACGAC,0.105
5,CCTCGCTC,0.0626
6,TGGTTCAA,0.0942
7,ACGTGACT,-0.115
8,CCTAGCAA,-0.0559
9,ATGTGGGG,-0.289
10,AGCTGTAG,0.0163
11,CGACCGCA,-0.0906
12,AAGATGAT,0.0317
13,AATGACTA,-0.018
14,ACTATAAG,0.0228
15,GAGGTGGC,-0.149
16,ACATTGGT,0.0584
17,GCCCCCAA,-0.277
18,GGTAGAAC,-0.0501
19,TACGAGGA,-0.0805
20,AATACTTA,-0.00068
21,CCGCAGTA,-0.0843
22,GTAAGCAA,0.345
23,ACATTAGT,0.234
24,CTGACATC,0.0683
25,ATTTCAGC,-0.126

row,Sequence,PBM E-score
1,CTTTTGGC,-0.0325
2,AATGCAAC,0.0897
3,TAATTCGA,0.143
4,ATACTTAA,0.178
5,CAGTTTAA,-0.129
6,ACCTGGGA,0.107
7,CAGGGGCC,-0.136
8,ACTCGAGA,-0.0156
9,GCGGGCAC,-0.0217
10,CTATAAGA,0.101
11,GCCCTTAC,-0.186
12,ACCACCAG,0.0286
13,TCGAAACA,0.251
14,CTTCCAGC,-0.141
15,CTCCTCAG,-0.29
16,TCCGTCGA,0.167
17,GTCATCGA,0.11
18,CGGAGGTA,-0.0635
19,ATGCTTTA,0.0615

# Reformatted: entries from further up
row	Sequence	PBM E-score
10	CTATAAGA	0.101
11	GCCCTTAC	-0.186
12	ACCACCAG	0.0286
13	TCGAAACA	0.251
14	CTTCCAGC	-0.141
15	CTCCTCAG	-0.29
16	TCCGTCGA	0.167
